Reference: patent US20240279232A1, “USE OF SUBSTITUTED 5-(4-METHYL-6-PHENYL-4H-BENZO[F]IMIDAZO[1,5-A][1,4] DIAZEPIN-3-YL)-1,2,4-O[…] THE TREATMENT OF INFLAMMATORY CONDITIONS” (priority 2021, published 2024)
At least one compound was matched to its structure with a doubt left.

Test system: Mouse microglia
Assay: NO production (Griess assay), LPS/IFNγ-activated mouse microglia
Type: cell-based
Experimental: Next, a library of GABAAR ligands was investigated to identify compounds that reduce the production of NO as a marker of anti-inflammatory activity. […] NO was quantified with a Greiss assay. Cell viability was determined with CellTiter-Glo.
Cell culture. A) HMC3 Microglia (CRL-3304) were maintained in treated cell culture flasks (Nunc, 156472) with EMEM (Corning, 10010CV) supplemented with 10% heat-inactivated FBS (Corning, 35011CV) and 100 U/mL penicillin and 100 μg/mL streptomycin (Hyclone, SV30010). Cultures were maintained at 37° C. and 5% CO2. When cells reached a density of 7×10^4 cells/mL, cultures were passaged with 0.25% Trypsin (Corning, 25-053-CI) and resuspended to a density no lower than 10,000 cells/mL. B) Human and mouse microglia cell lines were a gift from Dr. David Alvarez-Carbonell at Case Western Reserve University (Cleveland, OH). […]
Nitric oxide production (Griess assay) and viability assay (CellTiter-Glo). […] Absorbance at 530 nm was measured using a TECAN Infinite M1000 plate reader. The remaining 40 μL containing cells was analyzed for toxicity by the CellTiter-Glo Assay (Promega, Madison, WI). Luminescence was read using a TECAN Infinite M1000 plate reader.

Compound | reversal of the NO reduction by MP-IV-010 (in words) (with 50 μM MP-IV-010, flumazenil 50 μM, picrotoxin 50 μM, bicuculline 100 μM, SM-21 30 μM, norbinaltorphimine 30 μM) | NO production of activated microglia (in words) (dexamethasone 100 nM, GABA 1 μM, MP-IV-010 50 μM, GL-II-33 in the library screen)
CN1CCc2cc3c(cc2[C@H]1[C@@H]1OC(=O)c2c1ccc1c2OCO1)OCO3 [bicuculline, reference compound] | did not reverse | 
C[C@@H]1C[C@H]2[C@@H]3CCC4=CC(=O)C=C[C@]4(C)[C@@]3(F)[C@@H](O)C[C@]2(C)[C@@]1(O)C(=O)CO [dexamethasone, reference compound] |  | reduced NO production
